About 3,700 (7%) of roughly 53,000 sequences were called active.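 How the source made its calls: active means gene knockdowns whose robust z-score for IL-1 alpha signal is at least 2 or at most -2, so actives lie on both sides; inactive means the rest.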 The list shows a part of the results.

This assay can be described thus: Components of the Cytosolic LPS Sensing Pathway: Gene Identification via Genome-wide siRNA Screen.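 Further: robust z of the log signal after scaling to non-targeting control siRNA wells of the plate.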 To be noted: RAW264.7 macrophages, IL-1a HTRF, actives lie on both sides, screened at 100 nM (by protocol), cells primed 5 h with Pam3CSK4 first. The method in brief:
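Using IL-1a HTRF as read-out, the screen measured release from RAW264.7 cells after 48h siRNA knockdown (100 nM), 5 h Pam3CSK4 priming and 24 h cytosolic LipidA. Values were expressed relative to negative-control wells as robust z-scores.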
Take GGUUAUUGGGAUUGAGUGUTT against Prmt1: the z-score was inactive: 0.125.
To CCAUGAGUGACCAAACAGGTT against Snx22 belongs inactive: -0.509; to GCGCAUUGUGCAGGAUAAATT against Tnpo2, inactive: -1.22.
To CCUCUACAACCUAAUUUAUTT against Abcd1 belongs inactive: 0.927; to GGACAAUAGAUCGUCACUUTT against Wdpcp, inactive: -0.975.
To GGACCAUCCUACAUCGGUCTT against Fpgs belongs inactive: 1.02; to GGAAGUCGCUUGGAGUUCUTT against Sh2b1, inactive: 0.044.
Take GGGUGCUUGCCAUUAACCCTT against Galnt14: the z-score is inactive: 0.767.
The figure for GGAGAGGGAUAAGUUCUACTT against Unc79 is inactive: 0.451.
To GGAAGCACAUAGAAGCCAATT against Defb11 belongs inactive: -0.504.
Turning to GGUAUGCAUGAACAUAAUGTT against Prl7c1, the z-score is inactive: 0.788.
To CCGCUUUAAGGCACAUCCATT against Ubqln3 belongs inactive: 0.565; to GGUCUUUUUGAAUAGAGUATT against Glb1l2, inactive: 0.406; to GGGAGAGAGAAAAAGAAAATT against Park7, inactive: 0.94.
As to CCAGCAUGCGUGAUGUCUATT against Gdi1, the z-score was inactive: -1.71.
To CUUCCUGAGGAGAAUGUAUTT against Krt86 belongs inactive: -1.92.
Take CCCAAAACGGUAGCUUAAGTT against Rcc1: the z-score is inactive: -0.0143.
The figure for CCAGUAUUUGAGAAUUCUGTT against Gm4788 is inactive: -0.763; for GGCACACAAACAAUUGGUATT against Rrp36 it is inactive: -0.318; for CAAACCCAUGUUCUAAAUGTT against Oog3 it is inactive: 0.141.
The figure for GCUACAAUGUAGGUCUCAGTT against Rsbn1 is inactive: 1.15; for GGAAGAAAACGCAACUAUATT against Atp1b3 it is inactive: 0.246.
The figure for GCCUAUUUGACGUGCAGAGTT against Crocc is inactive: -0.0336.
With GGACAAACAUGGAAGCGUGTT against Itga2b, the z-score was inactive: -0.728.
In the case of GGCACUAAAAGAAGAGAUCTT against Bola3, the z-score is inactive: -0.0508.
The figure for GCACAUACUACCUAGAAGGTT against Hoxb6 is inactive: 0.282; for CCGUCUUCGUUUGCCCUUGTT against Hopx it is inactive: 1.69.
To GCGAAUGAUAUGUAUCAGATT against Pik3r1 belongs inactive: 0.647; to GGAUAUACAAGUUACAGAATT against Icam1, inactive: 0.661; to GGCAAAUGGUCUUUAUGCATT against Zfp606, inactive: -0.211.
To GCAUCUUAACAAUAACUACTT against Fhl4 belongs inactive: -0.392.
Regarding GGAUCAGUUGCUCCUAAACTT against Krtap6-2, the z-score was inactive: -0.522.
The figure for ACUAGAUUUAUCCUGCACATT against Platr28 is inactive: -1.26.
To CGUGGGACCUGGUAUGUAATT against Slc22a12 belongs active: 2.79; to GCUGUCAGAAAUCUUCGACTT against E2f4, active: 2.65.
To CGCGAACUUACCAAAAUGUTT against Endog belongs inactive: 0.768; to GGAAGUGGUGAAGAAACAUTT against Hsp90ab1, inactive: -1.72.
On to GGUGGAGUACUUGUGUGACTT against Suv39h2, for which the z-score is inactive: -0.16.
In the case of GCAUGUGACUCCAUAUAAATT against Cldn15, the z-score is inactive: -0.117.
The figure for GCCGUUUCGUGUGGUAUUUTT against Tm4sf1 is active: -2.64; for “GGCUUUCAUUCUUGGAAAATT against 9530009G21Rik” it is inactive: -0.362; for “GGAAACAUGUCCACACUGCTT against 2700062C07Rik” it is inactive: 0.67.
To CCAACCUAUAAGUUAAUGATT against Mrps22 belongs inactive: -0.735; to GGCAUAUCCAGAUAAGACCTT against Tacc1, inactive: -0.945; to GCUAGAACUCGAUGUGGAUTT against Mapk8ip2, inactive: 0.96.
For the sequence GGCUGUGUGAAUUUCAUGGTT against Reln, the z-score was inactive: -0.596.
The figure for GGCAAAAUGAAGAAGCUGATT against Hdac6 is inactive: -1.3.
To GCACCUCCACCAAAAAAACTT against Cd52 belongs inactive: -0.0616.
To GGAUUUCCCAGGAAGCGAATT against Septin4 belongs inactive: -0.711.
As for CGAGAUGGAAUAUCGCACATT against Cyyr1, the z-score was inactive: 1.74.
To GCUACAGAUUUCAGGAAAGTT against Slc22a14 belongs inactive: 0.145; to GGGACAGCUUUUGUGACUCTT against Raver1, active: -2.16.
The figure for GGAGAUGUUAAUUGAAGUCTT against Ap3b1 is inactive: 0.244.
GGAAAGCAAGUUCACAGUGTT against Olfr352: the z-score is inactive: -0.857.
The figure for GCCGGAGUUAUGAAAGGAGTT against Srsf10 is inactive: 0.701.
To GCACAUUUAACCAAAAAGCTT against Odam belongs inactive: -0.594; to GCUGUCACACCUAGUGUCATT against Olfr1457, inactive: -0.662; to GGAUGAACAUCAAAGAAGATT against Afg1l, inactive: 0.462.
The figure for GGUCCUUCAGUGUAAAUCUTT against Cbr2 is inactive: -0.534; for CCAGUGUAAGUUUGAUCAUTT against Zc3h8 it is inactive: 0.338.
As for GCUAGGCACAAGGUUUUUUTT against Rem1, the z-score is inactive: 0.616.
Regarding GGGCCUUUGGAUGUUGCUATT against Abcc10, the z-score is inactive: 1.11.
The figure for GCCGAGAGGGAUGUGUAUATT against Psmb1 is active: -2.54; for GCAUAAUUCUAAAGACGGGTT against Zfp143 it is inactive: -0.1; for GGGUUUGAACUGGUGAUUGTT against Cenpp it is inactive: -0.525.
On to CCAAAAAAGUUAGUUGUGGTT against Phf6, for which the z-score was inactive: 1.23.
The figure for GGAAUGAAAAACCUACAUGTT against Cxcl13 is inactive: 0.453; for GGAGCAGAUGGUUCAUGUCTT against Olfr547 it is inactive: -1.14.

The record behind these values is PubChem BioAssay AID1508600 (Functional Genomics Laboratory (NCATS/FGL), 2020).
